Our source for the binding values is PMC7366909.

By UniProt entry, the sequences of proteins in these tests, tags left out. Where a name states a change or a piece, a line headed by the entry shows the natural chain unless it says otherwise. Chains listed by the source or under a name are the forms on record and can include a tag or linker.
CD44 (erythroid isoform CD44H) (human (endogenous in red cells)) (P16070, form named): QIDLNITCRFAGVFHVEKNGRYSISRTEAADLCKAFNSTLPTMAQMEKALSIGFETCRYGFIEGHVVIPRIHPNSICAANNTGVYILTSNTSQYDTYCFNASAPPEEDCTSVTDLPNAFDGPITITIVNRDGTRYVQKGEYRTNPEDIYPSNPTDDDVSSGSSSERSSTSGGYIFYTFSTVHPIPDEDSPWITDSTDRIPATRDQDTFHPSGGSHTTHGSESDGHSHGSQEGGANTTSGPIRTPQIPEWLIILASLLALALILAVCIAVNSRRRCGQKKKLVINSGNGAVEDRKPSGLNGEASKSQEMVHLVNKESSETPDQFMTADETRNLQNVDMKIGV

The target in this test is CD44 (erythroid isoform CD44H) (human (endogenous in red cells)) (UniProt P16070). The test can be described thus: affinity purification with mass spectrometry; immune precipitates prepared from normal red cells with anti-CD44 (BRIC222) and an IgG1 isotype control; proteomic analysis.

These are yes or no findings as the source states them, for the method shown. In cells and extracts the contact can be indirect. A yes stands for co-enrichment or nearness to the bait. Other partners may have been found.

B1: epithelial membrane protein 3 (EMP3) (protein, UniProt P54852 1-163)
chain: MSLLLLVVSALHILILILLFVATLDKSWWTLPGKESLNLWYDCTWNNDTKTWACSNVSENGWLKAVQVLMVLSLILCCLSFILFMFQLYTMRRGGLFYATGLCQLCTSVAVFTGALIYAIHAEEILEKHPRGGSFGYCFALAWVAFPLALVSGIIYIHLRKRE
Consider B1, for which the binding entry is given as “binds”.
